Measured values reported in patent US5128447A (A. Menarini Industrie Farmaceutiche Riunite S.r.l., priority 1989, dated 1992).

Assay: solid-phase peptide synthesis
Conditions: whole synthesis, UV 210 nm, scale of the general procedure 2.0 g MBHA resin, 1.0 g Fmoc amide resin

Substance | final HPLC purity
PEPTIDE1{D.Y.[dW].V.[dW].[dW].[dW].[am]}$$$$V2.0 | 98%
PEPTIDE1{R.D.Y.[dW].V.[dW].[dW].R.[am]}$$$$V2.0 | 98.0%

Strings that start with PEPTIDE1 are HELM notation: dots part the residues, brackets hold end groups and non-standard residues.
